Data from US20150005348A1, “AMIDE COMPOUND AND USE THEREOF FOR PEST CONTROL” (SUMITOMO CHEMICAL COMPANY, LIMITED, priority 2012, published 2015).
Some results were stated once for a whole list of compounds, not compound by compound.

Key:
Type in all cases: in vivo
[1] = tested on: adult Musca domestica; experiment: Spray knockdown test on adult Musca domestica (Test Example 2); conditions: active ingredient 0.5% w/v in isopropyl alcohol/deodorized kerosene 1/9; 0.5 ml sprayed; counted after 10 minutes
[2] = tested on: adult common house mosquitos; experiment: Spray knockdown test on adult common house mosquitos (Test Example 3); conditions: active ingredient 0.02% w/v in isopropyl alcohol/deodorized kerosene 1/9; 0.5 ml sprayed; counted after 10 minutes
[3] = tested on: German cockroaches (Blattella germanica); experiment: Spray knockdown test on German cockroaches (Test Example 1); conditions: active ingredient 0.5% w/v in isopropyl alcohol/deodorized kerosene 1/9; 1.5 ml sprayed; counted after 5 minutes

SMILES	knockdown rate of the tested insect [1] [%]	knockdown rate of the tested insect [2] [%]	knockdown rate of the tested insect [3] [%]
O=C(/C=C/CCCCCCc1ccccc1)NCC1CCOC1 (centres unmarked) [Compound (4), (E)-N-(tetrahydrofuran-3-ylmethyl)-9-phenyl-2-noneneamide]	≥ 80	≥ 80	–
C/C(=C\C(=O)NCC1CCOC1)CCCc1ccccc1 (centres unmarked) [Compound (6), (E)-N-(tetrahydrofuran-3-ylmethyl)-3-methyl-6-phenyl-2-hexeneamide]	≥ 80	≥ 80	–
O=C(/C=C/CCCc1ccccc1)NCC1CCOCC1 [Compound (8), (E)-N-(tetrahydropyran-4-ylmethyl)-6-phenyl-2-hexeneamide]	≥ 80	–	–
O=C(/C=C/CCCCCc1ccccc1)NCC1CCOCC1 [Compound (10), (E)-N-(tetrahydropyran-4-ylmethyl)-8-phenyl-2-octeneamide]	≥ 80	–	≥ 80
O=C(/C=C/COCc1ccccc1)NCC1CCOCC1 [Compound (13), (E)-N-(tetrahydropyran-4-ylmethyl)-4-benzyloxy-2-buteneamide]	–	–	≥ 80
